Measurements taken from US11420997 (dated 2022).
[ ]: non-standard residue; d: D form. The star is where a group is joined. His(Trt) = N[C@@H](Cc1cn(C(c2ccccc2)(c2ccccc2)c2ccccc2)cn1)C(=O)O; Pbf = Cc1c(C)c(S(=O)(=O)*)c(C)c2c1OC(C)(C)C2; pGlu = O=C1CC[C@@H](C(=O)O)N1; Boc = CC(C)(C)OC(=O)*; tBu = CC(C)(C)*

Assay: general procedure: solution-phase peptide synthesis; soluble carrier (Tag) for liquid phase peptide synthesis (Kb, Ka, Kb-NHEt, KS1, F1, KJ1, KJ3); COMU/DIPEA; DMT-MM/DIPEA for Pro-NHEt coupling
[1] = coupling step, TFA salt (compounds 11, 49)
[2] = late stage modification step, TFA salt (compounds 11, 49), run 1
[3] = late stage modification step, TFA salt (compounds 11, 49), run 2
[4] = late stage modification step, 4TFA, run 1
[5] = late stage modification step, 4TFA, run 2
[6] = whole synthesis, TFA salt (compounds 11, 49)
[7] = late stage modification step, TFA

Substance | step yield [1] | crude yield [6] | also measured
HCl.H-Ser(tBu)-D-Tic-Oic-Arg(Pbf)-OKa | 97.5% | – | –
[pGlu]HWSY[dL]LR-OH | – | – | crude HPLC purity (late stage modification step, TFA salt (compounds 11, 49)): 76.28%
Pyr-His-Trp-Ser-Tyr-dLeu-Leu-Arg-Pro-NHEt | – | – | crude HPLC purity [2]: 76.28%; crude HPLC purity [3]: 95.18%; crude HPLC purity (late stage modification step, TFA salt (compounds 11, 49), run 3): 94.93%; step yield [2]: 93.0%; step yield [3]: 47.5%
HCl.H-Arg(Pbf)-Pro-Hyp-Gly-Thi-Ser(tBu)-D-Tic-Oic-Arg(Pbf)-OKa | 96.3% | – | –
4TFA.H-dArg-Arg-Pro-Hyp-Gly-Thi-Ser-dTic-Oic-Arg-OH | – | – | step yield [4]: 90.4%; step yield [5]: 73.2%; crude HPLC purity [4]: 84.93%; crude HPLC purity [5]: 85.9%
Pyr-His(Trt)-Trp(Boc)-Ser(tBu)-Tyr(tBu)-dLeu-Leu-Arg(Pbf)—O—KS1 | – | 33.7% | –
Pyr-His(Trt)-Trp(Boc)-Ser(tBu)-Tyr(tBu)-dLeu-Leu-Arg(Pbf)-Pro-NEt-KJ3 | – | 64.6% | crude HPLC purity [6]: 86.10%
Pyr-His(Trt)-Trp(Boc)-Ser(tBu)-Tyr(tBu)-dLeu-Leu-Arg(Pbf)—O—F1 | – | 64.6% | –
TFA.H-Ser-Pro-Leu-Gln-OH | – | – | crude HPLC purity [7]: 84.93%; step yield [7]: 78.3%
Boc-dArg(Pbf)-Arg(Pbf)-Pro-Hyp-Gly-Thi-Ser(tBu)-dTic-Oic-Arg(Pbf)-OKb | – | 81.4% | –
HCl.H-Pro-Hyp-Gly-Thi-Ser(tBu)-D-Tic-Oic-Arg(Pbf)-OKa | 96.6% | – | –
HCl.H-Thi-Ser(tBu)-D-Tic-Oic-Arg(Pbf)-OKa | 98.1% | – | –
Pyr-His(Trt)-Trp(Boc)-Ser(tBu)-Tyr(tBu)-dLeu-Leu-Arg(Pbf)—O—KJ1 | – | 87.50% | –
Pyr-His(Trt)-Trp(Boc)-Ser(tBu)-Tyr(tBu)-dLeu-Leu-Arg(Pbf)-Pro-EtNKb | – | 90.83% | –
Boc-Ser(tBu)-Pro-Leu-Gln(Trt)-OKb | – | 88.4% | –
[pGlu][His(Trt)]W(Boc)S(tBu)Y(tBu)[dL]LR(Pbf)P-NHEt | 80.51% | – | –
Pyr-His(Trt)-Trp(Boc)-Ser(tBu)-Tyr(tBu)-dLeu-Leu-Arg(Pbf)-OKb | – | 87.50% | –
HCl.H-D-Arg(Pbf)-Arg(Pbf)-Pro-Hyp-Gly-Thi-Ser(tBu)-D-Tic-Oic-Arg(Pbf)-OKa | 96.0% | – | –
HCl.H-Gly-Thi-Ser(tBu)-D-Tic-Oic-Arg(Pbf)-OKa | 96.9% | – | –
HCl.H-Hyp-Gly-Thi-Ser(tBu)-D-Tic-Oic-Arg(Pbf)-OKa | 97.2% | – | –
